Experimental data as given in patent US5091176A, “Polymer-modified peptide drugs having enhanced biological and pharmacological activities” (W. R. Grace & Co.-Conn., priority 1990, dated 1992).
At least one peptide structure holds a part that was inferred or is arguable (an end, a ring closure or a residue). Peptide text beside a SMILES is read from it.

Tested on: Human HepG2 hepatoma cells
Test: Growth promotion of hepatoma cells (assay of Pickart et al.)
Type: cell-based
Conditions: HepG2 plated at 20×10^3 cells/dish, after 7 days

Question: What does the source list for `NCCCC[C@H](NC(=O)[C@H](Cc1c[nH]cn1)NC(=O)CN)C(=O)O` [GHK, Gly-His-Lys] (H-Gly-His-Lys-OH)?
Answer: Cell Number(× 10^-3) (0.03 μg GHK): 177 × 10^-3; Cell Number(× 10^-3) (0.30 μg GHK): 230 × 10^-3; Cell Number(× 10^-3) (3.0 μg GHK): 260 × 10^-3
